The text below walks through data of publication PMC4627348.

Amino acid sequences for entries named in this document (tags omitted).
UniProt O96017: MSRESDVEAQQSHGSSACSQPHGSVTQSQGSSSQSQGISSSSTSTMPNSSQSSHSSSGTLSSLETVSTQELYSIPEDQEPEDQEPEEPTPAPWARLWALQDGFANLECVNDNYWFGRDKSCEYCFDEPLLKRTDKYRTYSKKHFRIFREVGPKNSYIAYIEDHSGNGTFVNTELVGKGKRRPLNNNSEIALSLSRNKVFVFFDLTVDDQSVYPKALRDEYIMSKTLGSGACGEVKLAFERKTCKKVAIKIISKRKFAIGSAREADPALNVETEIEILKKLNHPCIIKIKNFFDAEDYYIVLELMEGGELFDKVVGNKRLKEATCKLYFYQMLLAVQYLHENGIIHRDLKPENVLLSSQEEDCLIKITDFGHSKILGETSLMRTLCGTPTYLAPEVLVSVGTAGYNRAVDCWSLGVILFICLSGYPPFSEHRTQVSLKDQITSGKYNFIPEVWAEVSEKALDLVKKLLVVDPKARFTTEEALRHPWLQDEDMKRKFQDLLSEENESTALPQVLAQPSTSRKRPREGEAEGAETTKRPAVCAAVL
UniProt Q13263: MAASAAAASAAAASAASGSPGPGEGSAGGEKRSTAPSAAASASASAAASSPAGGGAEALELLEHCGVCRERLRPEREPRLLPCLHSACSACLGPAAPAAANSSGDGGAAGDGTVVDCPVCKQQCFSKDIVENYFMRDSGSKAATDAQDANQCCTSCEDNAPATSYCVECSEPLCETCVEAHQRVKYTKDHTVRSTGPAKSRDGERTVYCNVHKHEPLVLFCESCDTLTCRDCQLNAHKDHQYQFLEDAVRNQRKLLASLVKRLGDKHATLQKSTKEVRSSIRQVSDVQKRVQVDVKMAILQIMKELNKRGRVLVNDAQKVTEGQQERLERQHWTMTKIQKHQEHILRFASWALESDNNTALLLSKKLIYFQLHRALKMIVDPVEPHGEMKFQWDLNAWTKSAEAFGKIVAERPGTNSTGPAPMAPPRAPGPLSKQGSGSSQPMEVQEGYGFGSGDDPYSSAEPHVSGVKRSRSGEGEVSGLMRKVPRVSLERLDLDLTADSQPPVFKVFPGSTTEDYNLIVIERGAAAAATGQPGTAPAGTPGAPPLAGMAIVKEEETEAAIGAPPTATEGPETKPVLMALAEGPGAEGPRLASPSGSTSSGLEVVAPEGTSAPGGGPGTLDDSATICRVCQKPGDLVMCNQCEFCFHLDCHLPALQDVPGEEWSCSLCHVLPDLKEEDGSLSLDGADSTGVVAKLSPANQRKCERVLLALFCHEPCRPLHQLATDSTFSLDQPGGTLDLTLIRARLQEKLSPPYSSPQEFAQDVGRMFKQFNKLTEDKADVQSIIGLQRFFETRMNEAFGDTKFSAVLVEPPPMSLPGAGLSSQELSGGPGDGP

No constants are given. Whether binding was seen depends on the method and setting. In cells and extracts the contact can be indirect. Some binding calls cover weakened binding; strength is not graded here.

The target of experiment [1] is Chk2 (human (endogenous in U2OS)) (UniProt O96017). The experiment is described as follows: co-IP; endogenous Chk2 and KAP1 in CCAR2+/+ and CCAR2-/- cells before and after DNA damage; Chk2 antibody clone 44D4/21 used for IP.
The next experiment concerns the target HA-Chk2 and FLAG-Chk2 (UniProt O96017). The experiment is described as follows: co-IP; HA-Chk2 and FLAG-Chk2 co-transfected in CCAR2+/+ and CCAR2-/- cells; immunoprecipitated with anti-HA, immunoblotted with anti-FLAG; before and after DNA damage. On the technique in general: In western blotting, separated proteins are transferred to a membrane and probed.

Take “KAP1 (KRAB domain-associated protein 1) (from UniProt Q13263 1-835)”: the binding result in experiment [1] is “binds”.
With “HA-Chk2 and FLAG-Chk2 (from UniProt O96017 1-543) (enzyme)”, in the experiment with HA-Chk2 and FLAG-Chk2, the binding result is reported as “binds”.
